For experiment [1], the target named is T1, Anion exchange protein 2 (mouse (endogenous in choroid plexus)) (UniProt P13808).
T1 sequence: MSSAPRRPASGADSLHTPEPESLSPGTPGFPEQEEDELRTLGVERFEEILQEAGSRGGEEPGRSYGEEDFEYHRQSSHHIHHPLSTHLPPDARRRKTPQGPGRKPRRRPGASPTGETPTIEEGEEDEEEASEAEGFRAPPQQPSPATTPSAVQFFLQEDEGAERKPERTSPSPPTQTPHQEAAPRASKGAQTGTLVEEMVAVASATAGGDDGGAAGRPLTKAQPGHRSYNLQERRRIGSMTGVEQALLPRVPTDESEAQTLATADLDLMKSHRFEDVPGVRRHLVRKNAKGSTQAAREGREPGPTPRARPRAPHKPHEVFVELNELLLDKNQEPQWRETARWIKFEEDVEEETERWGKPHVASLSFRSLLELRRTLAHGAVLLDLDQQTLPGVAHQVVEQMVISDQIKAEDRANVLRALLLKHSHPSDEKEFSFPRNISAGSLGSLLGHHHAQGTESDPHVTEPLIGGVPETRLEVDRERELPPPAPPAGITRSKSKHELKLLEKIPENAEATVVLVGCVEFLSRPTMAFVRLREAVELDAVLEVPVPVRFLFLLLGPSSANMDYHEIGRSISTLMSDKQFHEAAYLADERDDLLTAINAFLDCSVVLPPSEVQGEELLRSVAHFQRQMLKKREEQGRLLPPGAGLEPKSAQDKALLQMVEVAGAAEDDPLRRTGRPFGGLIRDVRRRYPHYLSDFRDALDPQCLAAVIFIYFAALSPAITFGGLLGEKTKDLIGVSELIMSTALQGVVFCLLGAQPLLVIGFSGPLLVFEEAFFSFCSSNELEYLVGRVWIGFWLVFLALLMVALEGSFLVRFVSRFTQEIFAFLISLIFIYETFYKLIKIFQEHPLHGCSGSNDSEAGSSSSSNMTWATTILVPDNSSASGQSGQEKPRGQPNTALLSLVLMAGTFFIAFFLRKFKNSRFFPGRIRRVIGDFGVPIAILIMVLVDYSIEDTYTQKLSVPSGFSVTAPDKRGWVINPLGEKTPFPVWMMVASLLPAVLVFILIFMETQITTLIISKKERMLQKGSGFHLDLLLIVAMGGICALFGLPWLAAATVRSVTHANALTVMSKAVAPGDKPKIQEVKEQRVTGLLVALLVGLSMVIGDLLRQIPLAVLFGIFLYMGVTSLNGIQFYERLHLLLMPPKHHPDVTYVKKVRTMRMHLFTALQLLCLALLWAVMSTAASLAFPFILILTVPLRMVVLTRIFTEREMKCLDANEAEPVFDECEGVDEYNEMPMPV
Briefly: native gel or EMSA; mouse choroid plexus homogenate, 1% digitonin, soluble proteins on 3–12% NativePAGE gels, 150 V, 1 h, 4 °C; Coomassie bands cut out for mass spectrometry, and immunoblots of native gels; co-migration.

By UniProt entry, the sequences of proteins in these tests, tags left out.
UniProt G5E8K5: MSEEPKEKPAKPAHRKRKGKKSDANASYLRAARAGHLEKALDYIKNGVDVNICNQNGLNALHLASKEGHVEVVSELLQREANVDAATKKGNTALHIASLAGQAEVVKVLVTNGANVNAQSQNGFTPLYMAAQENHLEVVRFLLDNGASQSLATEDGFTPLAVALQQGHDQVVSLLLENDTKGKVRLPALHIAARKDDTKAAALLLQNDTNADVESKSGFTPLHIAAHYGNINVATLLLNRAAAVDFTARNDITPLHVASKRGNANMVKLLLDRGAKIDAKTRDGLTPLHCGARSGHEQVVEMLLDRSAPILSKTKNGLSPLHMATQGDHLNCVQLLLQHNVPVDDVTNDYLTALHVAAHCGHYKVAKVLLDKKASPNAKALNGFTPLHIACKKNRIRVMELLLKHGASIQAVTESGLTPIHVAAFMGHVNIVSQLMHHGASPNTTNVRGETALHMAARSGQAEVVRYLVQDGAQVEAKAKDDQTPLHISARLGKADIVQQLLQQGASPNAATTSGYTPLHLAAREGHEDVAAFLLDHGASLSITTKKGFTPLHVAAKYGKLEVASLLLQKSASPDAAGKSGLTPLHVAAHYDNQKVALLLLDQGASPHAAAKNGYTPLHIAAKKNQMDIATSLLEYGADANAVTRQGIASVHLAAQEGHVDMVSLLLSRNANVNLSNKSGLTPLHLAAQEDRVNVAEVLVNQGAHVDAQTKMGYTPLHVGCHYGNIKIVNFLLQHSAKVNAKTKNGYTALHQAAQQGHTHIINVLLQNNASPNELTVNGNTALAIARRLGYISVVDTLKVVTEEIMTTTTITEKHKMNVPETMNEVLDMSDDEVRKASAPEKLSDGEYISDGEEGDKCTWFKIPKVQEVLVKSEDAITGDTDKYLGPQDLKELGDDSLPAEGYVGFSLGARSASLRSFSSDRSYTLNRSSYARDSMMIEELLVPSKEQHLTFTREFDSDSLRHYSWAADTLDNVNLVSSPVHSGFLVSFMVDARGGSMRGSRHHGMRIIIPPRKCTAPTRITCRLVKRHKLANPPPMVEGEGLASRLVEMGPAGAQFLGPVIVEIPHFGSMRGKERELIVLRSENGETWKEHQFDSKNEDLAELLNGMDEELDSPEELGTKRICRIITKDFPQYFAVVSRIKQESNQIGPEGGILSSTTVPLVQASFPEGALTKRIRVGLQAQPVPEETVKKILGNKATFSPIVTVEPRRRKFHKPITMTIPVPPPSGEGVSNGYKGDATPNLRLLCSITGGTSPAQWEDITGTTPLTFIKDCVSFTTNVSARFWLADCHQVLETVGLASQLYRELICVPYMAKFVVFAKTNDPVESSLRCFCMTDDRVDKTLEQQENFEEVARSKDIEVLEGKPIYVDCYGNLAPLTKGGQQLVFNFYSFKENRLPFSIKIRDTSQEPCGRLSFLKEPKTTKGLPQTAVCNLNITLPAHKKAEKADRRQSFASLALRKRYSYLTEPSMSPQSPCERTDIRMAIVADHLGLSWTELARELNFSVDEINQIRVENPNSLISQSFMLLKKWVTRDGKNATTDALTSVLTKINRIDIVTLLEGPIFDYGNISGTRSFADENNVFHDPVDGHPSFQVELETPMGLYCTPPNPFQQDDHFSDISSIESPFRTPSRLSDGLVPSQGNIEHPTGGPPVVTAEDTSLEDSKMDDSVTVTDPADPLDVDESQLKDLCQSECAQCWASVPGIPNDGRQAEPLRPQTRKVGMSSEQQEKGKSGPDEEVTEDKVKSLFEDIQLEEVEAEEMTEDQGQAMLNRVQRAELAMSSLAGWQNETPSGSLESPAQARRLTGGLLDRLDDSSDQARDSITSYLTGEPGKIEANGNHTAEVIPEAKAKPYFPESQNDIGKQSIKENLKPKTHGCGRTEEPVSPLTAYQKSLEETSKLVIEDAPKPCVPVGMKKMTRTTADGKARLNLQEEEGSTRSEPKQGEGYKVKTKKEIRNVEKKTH

Experiment [2] addresses T2, Sodium-driven chloride bicarbonate exchanger (Na-dependent chloride-bicarbonate exchanger) (mouse (endogenous in choroid plexus)) (UniProt Q5DTL9).
T2 sequence: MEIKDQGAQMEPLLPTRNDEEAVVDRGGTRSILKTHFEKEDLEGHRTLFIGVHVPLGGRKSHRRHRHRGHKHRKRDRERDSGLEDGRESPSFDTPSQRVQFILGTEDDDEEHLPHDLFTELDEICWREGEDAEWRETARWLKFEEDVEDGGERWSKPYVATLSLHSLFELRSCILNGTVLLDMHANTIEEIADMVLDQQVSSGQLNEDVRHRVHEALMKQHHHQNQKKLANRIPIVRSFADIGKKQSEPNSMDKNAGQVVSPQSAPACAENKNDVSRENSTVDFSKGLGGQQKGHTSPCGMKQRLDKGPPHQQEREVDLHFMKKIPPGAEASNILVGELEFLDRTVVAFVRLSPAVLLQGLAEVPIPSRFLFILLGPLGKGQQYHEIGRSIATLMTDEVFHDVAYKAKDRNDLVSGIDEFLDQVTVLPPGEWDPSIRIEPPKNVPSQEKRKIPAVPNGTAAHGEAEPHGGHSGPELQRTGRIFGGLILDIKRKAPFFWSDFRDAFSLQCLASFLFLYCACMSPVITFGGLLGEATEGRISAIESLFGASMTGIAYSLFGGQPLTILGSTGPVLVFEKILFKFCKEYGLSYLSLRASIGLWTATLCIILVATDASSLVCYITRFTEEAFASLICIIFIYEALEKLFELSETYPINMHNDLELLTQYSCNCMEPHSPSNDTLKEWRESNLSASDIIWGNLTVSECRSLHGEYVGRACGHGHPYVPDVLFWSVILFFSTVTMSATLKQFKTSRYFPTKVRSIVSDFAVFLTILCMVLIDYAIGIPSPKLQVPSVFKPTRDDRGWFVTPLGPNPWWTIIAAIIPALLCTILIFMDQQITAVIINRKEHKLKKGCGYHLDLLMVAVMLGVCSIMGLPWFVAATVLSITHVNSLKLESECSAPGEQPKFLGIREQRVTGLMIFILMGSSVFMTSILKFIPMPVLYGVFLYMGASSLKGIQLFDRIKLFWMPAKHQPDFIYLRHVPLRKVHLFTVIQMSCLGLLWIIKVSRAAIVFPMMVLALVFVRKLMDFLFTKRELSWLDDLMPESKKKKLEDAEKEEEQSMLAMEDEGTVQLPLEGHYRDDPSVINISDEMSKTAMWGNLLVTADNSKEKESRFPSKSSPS
The description is as above.

In experiment [3] the target is T3, Na-K-2Cl cotransporter 1 (Solute carrier family 12 member 2) (mouse (endogenous in choroid plexus)) (UniProt P55012).
T3 sequence: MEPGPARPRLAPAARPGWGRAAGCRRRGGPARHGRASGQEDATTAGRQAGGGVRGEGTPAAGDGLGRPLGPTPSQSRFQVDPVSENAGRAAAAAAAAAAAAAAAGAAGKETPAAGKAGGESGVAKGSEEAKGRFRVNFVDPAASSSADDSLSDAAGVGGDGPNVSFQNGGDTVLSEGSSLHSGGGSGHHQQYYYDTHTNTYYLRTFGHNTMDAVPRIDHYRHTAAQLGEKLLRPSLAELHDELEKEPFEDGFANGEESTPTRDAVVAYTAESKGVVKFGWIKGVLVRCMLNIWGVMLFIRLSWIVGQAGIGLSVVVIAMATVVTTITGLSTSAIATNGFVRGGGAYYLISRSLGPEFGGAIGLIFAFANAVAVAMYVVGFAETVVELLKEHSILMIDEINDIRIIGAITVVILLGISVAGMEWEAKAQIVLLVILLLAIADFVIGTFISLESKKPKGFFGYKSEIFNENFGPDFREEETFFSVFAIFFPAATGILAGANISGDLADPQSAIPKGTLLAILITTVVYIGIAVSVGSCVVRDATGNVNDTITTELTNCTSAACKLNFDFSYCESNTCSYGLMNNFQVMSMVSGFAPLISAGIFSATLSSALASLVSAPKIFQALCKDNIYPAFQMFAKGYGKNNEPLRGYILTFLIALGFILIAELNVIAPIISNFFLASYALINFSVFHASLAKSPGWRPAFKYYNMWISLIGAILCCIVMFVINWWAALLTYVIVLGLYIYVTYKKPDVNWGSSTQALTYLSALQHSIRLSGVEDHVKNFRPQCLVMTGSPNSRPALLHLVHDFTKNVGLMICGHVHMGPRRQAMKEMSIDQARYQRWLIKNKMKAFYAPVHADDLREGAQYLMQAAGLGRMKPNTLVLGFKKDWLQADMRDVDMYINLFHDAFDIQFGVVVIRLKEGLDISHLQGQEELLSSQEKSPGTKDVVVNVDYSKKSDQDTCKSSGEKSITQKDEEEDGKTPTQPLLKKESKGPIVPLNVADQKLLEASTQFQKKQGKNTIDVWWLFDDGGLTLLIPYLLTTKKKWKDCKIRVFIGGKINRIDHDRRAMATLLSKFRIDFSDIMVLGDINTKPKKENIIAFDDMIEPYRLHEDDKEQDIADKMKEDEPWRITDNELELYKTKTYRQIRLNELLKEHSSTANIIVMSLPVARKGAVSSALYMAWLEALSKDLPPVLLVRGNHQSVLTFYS
Described as above.

Experiment [4] deals with Ankyrin-3 (mouse (endogenous in choroid plexus)) (UniProt G5E8K5). The experiment in a line: proximity ligation; Duolink PLA with pairs of primary antibodies on paraformaldehyde-fixed paraffin sections of mouse brain (choroid plexus epithelium).
Experiment [5] deals with T3, Na-K-2Cl cotransporter 1 (Solute carrier family 12 member 2) (mouse (endogenous in choroid plexus)). The experiment is described as above.

No constants are given. Whether binding was seen depends on the method and setting. For part of these data: In cells and extracts the contact can be indirect. Some binding calls cover weakened binding; strength is not graded here.

With “Spectrin alpha chain, non-erythrocytic 1 (from UniProt P16546 1-2472)”, the binding result is recorded as “binds” in experiment [1], “binds” in experiment [2], “binds” in experiment [3] and “binds weakly” in experiment [4].

B1: Anion exchange protein 2 (protein, UniProt P13808 1-1237)
chain: MSSAPRRPASGADSLHTPEPESLSPGTPGFPEQEEDELRTLGVERFEEILQEAGSRGGEEPGRSYGEEDFEYHRQSSHHIHHPLSTHLPPDARRRKTPQGPGRKPRRRPGASPTGETPTIEEGEEDEEEASEAEGFRAPPQQPSPATTPSAVQFFLQEDEGAERKPERTSPSPPTQTPHQEAAPRASKGAQTGTLVEEMVAVASATAGGDDGGAAGRPLTKAQPGHRSYNLQERRRIGSMTGVEQALLPRVPTDESEAQTLATADLDLMKSHRFEDVPGVRRHLVRKNAKGSTQAAREGREPGPTPRARPRAPHKPHEVFVELNELLLDKNQEPQWRETARWIKFEEDVEEETERWGKPHVASLSFRSLLELRRTLAHGAVLLDLDQQTLPGVAHQVVEQMVISDQIKAEDRANVLRALLLKHSHPSDEKEFSFPRNISAGSLGSLLGHHHAQGTESDPHVTEPLIGGVPETRLEVDRERELPPPAPPAGITRSKSKHELKLLEKIPENAEATVVLVGCVEFLSRPTMAFVRLREAVELDAVLEVPVPVRFLFLLLGPSSANMDYHEIGRSISTLMSDKQFHEAAYLADERDDLLTAINAFLDCSVVLPPSEVQGEELLRSVAHFQRQMLKKREEQGRLLPPGAGLEPKSAQDKALLQMVEVAGAAEDDPLRRTGRPFGGLIRDVRRRYPHYLSDFRDALDPQCLAAVIFIYFAALSPAITFGGLLGEKTKDLIGVSELIMSTALQGVVFCLLGAQPLLVIGFSGPLLVFEEAFFSFCSSNELEYLVGRVWIGFWLVFLALLMVALEGSFLVRFVSRFTQEIFAFLISLIFIYETFYKLIKIFQEHPLHGCSGSNDSEAGSSSSSNMTWATTILVPDNSSASGQSGQEKPRGQPNTALLSLVLMAGTFFIAFFLRKFKNSRFFPGRIRRVIGDFGVPIAILIMVLVDYSIEDTYTQKLSVPSGFSVTAPDKRGWVINPLGEKTPFPVWMMVASLLPAVLVFILIFMETQITTLIISKKERMLQKGSGFHLDLLLIVAMGGICALFGLPWLAAATVRSVTHANALTVMSKAVAPGDKPKIQEVKEQRVTGLLVALLVGLSMVIGDLLRQIPLAVLFGIFLYMGVTSLNGIQFYERLHLLLMPPKHHPDVTYVKKVRTMRMHLFTALQLLCLALLWAVMSTAASLAFPFILILTVPLRMVVLTRIFTEREMKCLDANEAEPVFDECEGVDEYNEMPMPV
B1: the binding entry in experiment [5] and in experiment [3] was “binds” each time.
